Some peptides are written in HELM: one residue between dots, names in brackets for other building blocks, links after the first $.
Experiment: general procedure: Fmoc solid-phase peptide synthesis; Rink amide resin; DIC/HOBt
Conditions: late stage modification step

Row | Substance | step yield (on peptide 2a) [% yield] | step yield (isolated yield) [%]
1 | PEPTIDE1{[ac].L.I.L.[K(Py)].P.F.[am]}$$$$V2.0 | 22 | 
2 | PEPTIDE1{[ac].Y.L.D.[K(Py)].V.L.T.Q.[am]}$$$$V2.0 |  | 47

Source: article PMC12483151 (JACS Au, 2025)
